At least one structure is not confirmed: it was looked up by name or label, or the drawing left a doubt. Some results were stated once for a whole list of compounds, not compound by compound.
How the values were obtained:
[1] = Hydrolysis of prodrugs in buffer over pH 1.2-7.4 at 37° C.; format: physicochemical
Experimental: The hydrolysis of prodrugs of the present invention in buffer was studied over the pH range 1.2-7.4 at 37° C.

VACVase = target: T1, VACVase (Homo sapiens, UniProt Q86WA6); assay: Hydrolysis of prodrugs by VACVase (Michaelis-Menten kinetics); details: 25° C.
T1 sequence (Q86WA6 38-291): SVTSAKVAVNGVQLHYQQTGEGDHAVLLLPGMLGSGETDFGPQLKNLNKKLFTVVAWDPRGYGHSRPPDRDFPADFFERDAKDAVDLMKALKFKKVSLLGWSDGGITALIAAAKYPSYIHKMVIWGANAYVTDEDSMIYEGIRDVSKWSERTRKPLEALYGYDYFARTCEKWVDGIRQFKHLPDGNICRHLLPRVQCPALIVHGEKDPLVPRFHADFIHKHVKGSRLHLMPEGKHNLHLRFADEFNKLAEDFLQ

[2] = pH 5.5 (pH of the upper small intestine), 37° C.

In the case of CCC(CC)O[C@@H]1C=C(C(=O)OC(C)OC(=O)[C@@H](N)[C@@H](C)CC)C[C@H](NC(=N)N)[C@H]1NC(C)=O (some centres unmarked) [GOC-Ile, isoleucine ethoxyester of guanidine oseltamivir], the “half-life of hydrolysis in buffer” value ([1]; pH 1.2, 37° C.) is reported as > 4 h, the “half-life of hydrolysis in buffer” value ([1]; pH 4, 37° C.) is reported as > 4 h and the “half-life of hydrolysis in buffer” value [1, 2] is reported as > 2 h.

For CCC(CC)O[C@@H]1C=C(C(=O)OC(C)OC(=O)[C@@H](N)C(C)C)C[C@H](NC(=N)N)[C@H]1NC(C)=O (some centres unmarked) [GOC-Val, valine ethoxyester of guanidine oseltamivir], the Kcat/Km (VACVase) was 3700 M⁻¹ s⁻¹, the “half-life of hydrolysis in buffer” value ([1]; pH 1.2, 37° C.) was > 4 h and the “half-life of hydrolysis in buffer” value ([1]; pH 4, 37° C.) was > 4 h. For the same compound, the “half-life of hydrolysis in buffer” value [1, 2] was > 2 h.

For CC(=O)N[C@H]1[C@H]([C@H](O)[C@H](O)CO)OC(C(=O)OC(C)OC(=O)[C@@H](N)C(C)C)=C[C@@H]1NC(=N)N (some centres unmarked) [Zan-Val, valine ethoxyester of zanamivir], the Kcat/Km (VACVase) was 13700 M⁻¹ s⁻¹, the “half-life of hydrolysis in buffer” value ([1]; pH 1.2, 37° C.) was > 4 h and the “half-life of hydrolysis in buffer” value ([1]; pH 4, 37° C.) was > 4 h. For the same compound, the “half-life of hydrolysis in buffer” value [1, 2] was > 2 h.
